Consider 42 compounds from PubChem BioAssay AID662 (National Center for Advancing Translational Sciences (NCATS), 2007).

Values joined by “and” are separate entries in the source; they are usually repeats but may differ in a detail not shown here. Equal values may be shown once. The list shows a part of the results. Further columns of the screen follow, without active or inactive calls. The list favours compounds with an active or inconclusive main result. Potencies come from curve fits of mixed quality, noted in brackets.

The nature of the assay: Cell signaling CRE-BLA (Fsk stim). The following applies: CHO CRE-bla reporter (cAMP response element driving beta-lactamase), forskolin EC10, beta-lactamase ratio; measured here: 460 nm blue channel. The gist of the method:
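Reporter-gene assay: CHO cells with beta-lactamase behind cAMP responsive elements, co-treated with compound and EC10 NKH 477 for 3 hours at 37 degrees Celsius. Activity came from the 460/530 nm CCF4 emission ratio.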
Consider `CCOc1ccc(-c2nnn(CC(=O)N3CCN(c4ccc(OC)cc4)CC3)n2)cc1OCC`, for which the AC50 is 15.8 µM [rising, partial curve].
With `Cc1cccc(OCC(=O)Nc2ccc(N3CCCC3)cc2)c1C` the figure was 3.16 µM [falling, partial curve].
With `Cc1cccc(NC(=O)Nc2cccc(C#N)c2)n1` the figure was 3.16 µM [falling, full curve].
For `COc1cccc(Nc2ncc3ncc(=O)n(Cc4cccs4)c3n2)c1` the value was 3.16 µM [falling, single point]; for `O=C(Nc1ccc2c3c(cccc13)CC2)c1ccco1`, 25.1 µM [falling, single point].
With `CCN(CC)S(=O)(=O)c1ccc(NC(=O)COc2c(OC)cccc2OC)cc1`, the AC50 was 10 µM [rising, partial curve].
With `Cc1ccc(-c2nnc3c4ccccc4c(C)nn23)cc1S(=O)(=O)N1CCN(C)CC1` the figure was 3.16 µM [rising, partial curve]; with `CCNCCNC(=O)c1c(O)c2cccc3c2n(c1=O)CCC3`, 15.8 µM [rising, single point]; with `COc1cc(OC)c(C(=O)Oc2ccc3c(c2)OCO3)cc1OC`, 25.1 µM [rising, single point].
With `CCOC(=O)/C=C/S(=O)(=O)c1ccc(NC(C)=O)cc1` the figure was 6.31 µM [falling, partial curve]; with `COC(=O)c1cc(Cc2ccc(N)c(C(=O)OC)c2)ccc1N`, 20 µM [rising, partial curve]; with `CCOc1ccc(C(=O)NCCn2cc(SCC(=O)Nc3cc(C)on3)c3ccccc32)cc1`, 0.251 µM [falling, full curve, poor fit].
For `COCCN1Cc2cccc(C(=O)NCc3ccccc3OC)c2C1=O` the value was 15.8 µM [rising, single point]; for `O=c1cc(-c2ccc(O)c(O)c2)oc2cccc(O)c12`, 25.1 µM [falling, single point]; for `Cc1ccccc1-c1ccc2ncnc(N3CCNCC3)c2c1`, 3.16 µM [rising, full curve].
As to `O=C(O)c1cc(=O)c2ccccc2[nH]1`, the AC50 is 12.6 µM [falling, single point] and 15.8 µM [falling, partial curve, poor fit].
`COc1ccccc1-c1cc(NCc2cccs2)ncn1`: the concentration at half-maximal activity (AC50) was 15.8 µM [rising, partial curve].
For `Cc1nc(SCC(=O)Nc2cc(C)on2)c2c(C)c(C)sc2n1` the value was 0.251 µM [rising, full curve]; for `COc1ccc(NC(=O)CSc2nc3ccccc3c(=O)n2CCNC(C)=O)cc1`, 25.1 µM [rising, single point]; for `CCOc1ccc(/C(O)=C2/C(=O)C(=O)N(CCOCCO)C2c2ccc(F)cc2)cc1` (configuration not stated), 5.01 µM [rising, partial curve].
Regarding `O=C(CCOc1ccccc1)Nc1ccc(S(=O)(=O)N2CCCC2)cc1`, the concentration at half-maximal activity (AC50) is 25.1 µM [rising, single point].
Take `CC1CCCC(C)N1C(=O)CN1C(=O)C(C)(C)Oc2ccc(C(=O)NC3CCCCC3)cc21` (configuration not stated): the concentration at half-maximal activity (AC50) is 3.98 µM [falling, partial curve].
For `CSc1cnn(-c2ccccc2)c(=O)c1SC` the value was 10 µM [rising, partial curve]; for `Cc1cc(C)n(C(=O)c2cc3ccccc3c(=O)o2)n1`, 0.00316 µM [falling, full curve, poor fit].
With `COc1ccc(-n2nnnc2SCC(=O)N2CCCC2)cc1OC` the figure was 10 µM [rising, partial curve]; with `Cc1cc(C)c2c(n1)nn1c(N3CCN(Cc4ccccc4)CC3)cc(C)nc21`, 0.00794 µM [rising, full curve, poor fit]; with `COC(=O)CN(c1ccccc1F)S(=O)(=O)c1ccccc1`, 0.00398 µM [falling, full curve].
For `Cc1cc(C)cc(NC(=O)CN(C)S(=O)(=O)c2cnc[nH]2)c1` the value was 12.6 µM [rising, partial curve, poor fit]; for `Cc1ccccc1N1C(=O)C(Cl)=C(N2CCN(c3ccccc3)CC2)C1=O`, 12.6 µM [falling, single point]; for `O=C(Cc1cccs1)N1CCCC(c2nc3c(nnn3Cc3cccc(Cl)c3)c(=O)[nH]2)C1` (configuration not stated), 15.8 µM [rising, single point].
Take `c1ccc(-c2nc3cc(Oc4ccc5oc(-c6ccccn6)nc5c4)ccc3o2)nc1`: the AC50 is 12.6 µM [rising, single point].
With `O=C(CN1CCN(S(=O)(=O)c2ccc(F)cc2)CC1)Nc1ccc2c(c1)OCO2` the figure was 0.1 µM [falling, full curve].
With `CC1(C)CC(=O)C2=C(C1)N(CCN1CCOCC1)C1=C(C(=O)CC(C)(C)C1)C2c1cccc(F)c1` the figure was 10 µM [rising, partial curve].
Regarding `c1cncc(-c2nccc(-n3ccnc3)n2)c1`, the AC50 was 6.31 µM [rising, partial curve].
For `COCCn1nnnc1C(c1ccc(OC)c(OC)c1)N1CCN(c2nc3ccccc3s2)CC1` (configuration not stated) the value was 1.26 µM [rising, partial curve]; for `N#CCCS(=O)(=O)c1nnnn1-c1ccccc1`, 2 µM [falling, full curve].
For `Cc1oc2ccc(OC(=O)N3CCOCC3)cc2c1C(=O)OC(C)C` the value was 12.6 µM [rising, single point]; for `CCCCCOC(=O)CSc1nnc(-c2ccccc2)c(=O)[nH]1`, 0.0794 µM [falling, full curve].
For `O=C1CC(N2CCN(C/C=C/c3ccccc3)CC2)C(=O)N1Cc1ccc(N2CCCC2=O)cc1` (configuration not stated) the value was 0.794 µM [rising, full curve, poor fit]; for `Cc1noc(C)c1-c1ccc2ncnc(NCc3cccnc3)c2c1`, 12.6 µM [rising, partial curve].
As to `COc1ccc(NC(=O)C(C)NS(=O)(=O)c2ccc(NC(C)=O)cc2)cc1Cl` (configuration not stated), the concentration at half-maximal activity (AC50) was 0.398 µM [falling, single point].
For `CC1CCCC(C)N1C(=O)Cn1c(SCC(=O)NCc2ccc3c(c2)OCO3)nc2ccccc21` (configuration not stated) the value was 0.0794 µM [falling, partial curve, poor fit].

Broadly, the AC50 is the concentration giving half of the maximal activity seen.
